log2 fold change data for 38 targets are collected here from the supplement of paper PMC10849652.

The chains behind the UniProt entries cited, without tags or fusion partners. Where a name states a change or a piece, a line headed by the entry shows the natural chain unless it says otherwise.
UniProt Q68D10: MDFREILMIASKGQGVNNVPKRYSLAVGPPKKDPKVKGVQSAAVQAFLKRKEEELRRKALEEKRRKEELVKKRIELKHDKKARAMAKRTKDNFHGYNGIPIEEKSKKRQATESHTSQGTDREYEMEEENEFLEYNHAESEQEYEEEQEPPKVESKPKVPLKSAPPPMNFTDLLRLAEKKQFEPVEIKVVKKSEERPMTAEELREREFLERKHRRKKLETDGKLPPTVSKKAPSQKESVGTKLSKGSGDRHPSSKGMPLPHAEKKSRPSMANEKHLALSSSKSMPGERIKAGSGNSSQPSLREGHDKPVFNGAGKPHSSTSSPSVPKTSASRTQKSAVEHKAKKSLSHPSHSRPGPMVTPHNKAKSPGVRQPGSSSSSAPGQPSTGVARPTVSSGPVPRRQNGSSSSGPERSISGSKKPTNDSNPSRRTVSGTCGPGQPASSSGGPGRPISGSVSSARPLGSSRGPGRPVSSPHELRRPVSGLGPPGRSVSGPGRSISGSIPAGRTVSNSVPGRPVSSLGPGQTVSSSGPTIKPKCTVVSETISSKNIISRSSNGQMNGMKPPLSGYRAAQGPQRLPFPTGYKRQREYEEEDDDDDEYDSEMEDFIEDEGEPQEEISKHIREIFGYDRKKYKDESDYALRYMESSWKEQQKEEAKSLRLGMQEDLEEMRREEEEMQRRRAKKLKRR
UniProt Q8N3U4: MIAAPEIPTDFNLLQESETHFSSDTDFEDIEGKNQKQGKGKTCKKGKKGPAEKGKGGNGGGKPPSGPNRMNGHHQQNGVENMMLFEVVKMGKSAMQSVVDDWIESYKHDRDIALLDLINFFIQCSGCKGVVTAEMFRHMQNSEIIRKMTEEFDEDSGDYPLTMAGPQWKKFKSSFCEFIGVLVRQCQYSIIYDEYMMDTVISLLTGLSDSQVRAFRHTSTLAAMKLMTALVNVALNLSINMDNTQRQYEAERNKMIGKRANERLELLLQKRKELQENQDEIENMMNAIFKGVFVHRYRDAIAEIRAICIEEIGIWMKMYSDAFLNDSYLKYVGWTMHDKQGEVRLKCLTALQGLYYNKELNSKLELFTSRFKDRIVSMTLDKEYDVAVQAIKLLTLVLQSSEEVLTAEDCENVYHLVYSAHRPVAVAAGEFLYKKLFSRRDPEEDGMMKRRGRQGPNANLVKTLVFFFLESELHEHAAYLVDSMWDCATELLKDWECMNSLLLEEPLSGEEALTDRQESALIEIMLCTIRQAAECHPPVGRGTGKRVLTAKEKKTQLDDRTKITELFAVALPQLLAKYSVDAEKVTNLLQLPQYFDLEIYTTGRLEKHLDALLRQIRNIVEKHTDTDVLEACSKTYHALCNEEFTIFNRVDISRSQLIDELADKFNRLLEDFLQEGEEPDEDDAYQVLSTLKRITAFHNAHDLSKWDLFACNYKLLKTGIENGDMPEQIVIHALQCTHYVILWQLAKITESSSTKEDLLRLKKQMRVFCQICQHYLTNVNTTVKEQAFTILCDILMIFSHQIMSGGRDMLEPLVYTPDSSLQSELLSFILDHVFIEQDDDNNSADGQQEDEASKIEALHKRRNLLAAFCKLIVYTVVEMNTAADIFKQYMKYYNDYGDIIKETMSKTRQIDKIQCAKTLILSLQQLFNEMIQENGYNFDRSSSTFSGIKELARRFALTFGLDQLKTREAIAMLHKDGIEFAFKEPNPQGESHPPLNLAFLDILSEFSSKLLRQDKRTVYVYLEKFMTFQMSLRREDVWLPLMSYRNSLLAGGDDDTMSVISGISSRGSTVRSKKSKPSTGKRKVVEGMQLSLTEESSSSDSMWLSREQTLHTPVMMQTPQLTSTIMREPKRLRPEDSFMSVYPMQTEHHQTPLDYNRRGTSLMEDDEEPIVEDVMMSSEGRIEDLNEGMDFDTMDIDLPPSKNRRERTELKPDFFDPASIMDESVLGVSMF
UniProt Q5T280: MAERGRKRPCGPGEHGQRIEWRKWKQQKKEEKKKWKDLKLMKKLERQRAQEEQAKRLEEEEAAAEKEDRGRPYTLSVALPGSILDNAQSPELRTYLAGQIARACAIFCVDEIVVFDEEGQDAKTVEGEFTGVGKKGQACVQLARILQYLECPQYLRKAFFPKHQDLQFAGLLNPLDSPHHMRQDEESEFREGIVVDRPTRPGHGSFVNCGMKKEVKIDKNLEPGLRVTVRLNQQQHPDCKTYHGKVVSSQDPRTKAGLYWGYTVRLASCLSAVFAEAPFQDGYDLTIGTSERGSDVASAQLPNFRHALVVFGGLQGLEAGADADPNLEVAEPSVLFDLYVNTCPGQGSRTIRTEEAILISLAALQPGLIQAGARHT
UniProt P49675, whole entry, looked up: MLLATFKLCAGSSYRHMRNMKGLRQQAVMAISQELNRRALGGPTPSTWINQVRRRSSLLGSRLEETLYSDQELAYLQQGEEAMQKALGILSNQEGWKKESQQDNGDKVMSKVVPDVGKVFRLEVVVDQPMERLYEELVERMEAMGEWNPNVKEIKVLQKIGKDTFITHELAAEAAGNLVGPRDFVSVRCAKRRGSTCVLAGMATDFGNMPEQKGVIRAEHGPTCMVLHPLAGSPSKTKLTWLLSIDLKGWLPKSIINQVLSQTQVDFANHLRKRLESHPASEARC
UniProt Q11201: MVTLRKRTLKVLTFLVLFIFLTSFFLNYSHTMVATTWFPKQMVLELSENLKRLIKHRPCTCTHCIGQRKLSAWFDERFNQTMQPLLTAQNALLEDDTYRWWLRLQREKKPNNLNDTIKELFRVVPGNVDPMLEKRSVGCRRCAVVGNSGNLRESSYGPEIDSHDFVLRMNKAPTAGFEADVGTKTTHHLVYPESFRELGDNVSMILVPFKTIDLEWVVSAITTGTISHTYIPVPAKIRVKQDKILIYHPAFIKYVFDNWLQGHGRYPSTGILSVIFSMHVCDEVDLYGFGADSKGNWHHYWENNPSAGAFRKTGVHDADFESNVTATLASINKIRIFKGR
UniProt Q8N0Z3: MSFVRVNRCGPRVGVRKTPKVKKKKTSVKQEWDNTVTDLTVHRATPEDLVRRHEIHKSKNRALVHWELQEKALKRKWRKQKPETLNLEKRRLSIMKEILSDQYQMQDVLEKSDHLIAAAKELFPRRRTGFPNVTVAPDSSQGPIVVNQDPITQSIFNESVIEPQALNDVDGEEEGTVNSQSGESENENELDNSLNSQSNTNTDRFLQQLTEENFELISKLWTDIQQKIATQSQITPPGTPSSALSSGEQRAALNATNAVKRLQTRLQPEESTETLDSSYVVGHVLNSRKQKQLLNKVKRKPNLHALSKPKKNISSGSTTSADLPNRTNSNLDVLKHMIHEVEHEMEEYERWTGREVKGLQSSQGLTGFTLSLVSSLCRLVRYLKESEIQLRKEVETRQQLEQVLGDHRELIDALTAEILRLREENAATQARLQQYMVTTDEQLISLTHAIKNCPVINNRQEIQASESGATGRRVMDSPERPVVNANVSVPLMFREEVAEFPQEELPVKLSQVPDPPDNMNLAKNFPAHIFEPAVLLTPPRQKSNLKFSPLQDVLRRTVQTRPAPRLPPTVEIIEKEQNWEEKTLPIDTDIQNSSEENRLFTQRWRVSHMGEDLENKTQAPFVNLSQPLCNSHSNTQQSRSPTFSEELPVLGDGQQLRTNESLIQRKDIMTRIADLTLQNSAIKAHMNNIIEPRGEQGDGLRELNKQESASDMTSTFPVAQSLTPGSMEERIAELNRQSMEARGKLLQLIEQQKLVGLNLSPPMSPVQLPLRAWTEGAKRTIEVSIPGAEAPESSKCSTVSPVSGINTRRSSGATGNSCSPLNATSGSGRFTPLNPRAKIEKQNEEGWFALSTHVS
UniProt Q9P0W8: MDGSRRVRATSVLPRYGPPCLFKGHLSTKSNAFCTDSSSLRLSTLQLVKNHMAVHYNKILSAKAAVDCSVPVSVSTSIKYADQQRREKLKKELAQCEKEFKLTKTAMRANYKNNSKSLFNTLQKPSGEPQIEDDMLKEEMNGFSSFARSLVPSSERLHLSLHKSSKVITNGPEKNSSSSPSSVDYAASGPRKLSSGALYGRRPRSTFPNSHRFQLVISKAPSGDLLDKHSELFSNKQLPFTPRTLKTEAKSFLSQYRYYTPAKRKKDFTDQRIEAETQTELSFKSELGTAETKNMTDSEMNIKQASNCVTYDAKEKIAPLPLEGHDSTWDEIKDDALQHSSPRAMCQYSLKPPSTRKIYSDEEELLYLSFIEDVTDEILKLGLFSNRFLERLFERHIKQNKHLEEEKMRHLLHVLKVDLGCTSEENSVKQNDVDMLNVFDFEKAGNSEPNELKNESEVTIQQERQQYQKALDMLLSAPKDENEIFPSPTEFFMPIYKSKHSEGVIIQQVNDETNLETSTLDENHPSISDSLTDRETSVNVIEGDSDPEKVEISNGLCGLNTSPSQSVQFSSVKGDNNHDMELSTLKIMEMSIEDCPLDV
UniProt Q16384, whole entry, looked up: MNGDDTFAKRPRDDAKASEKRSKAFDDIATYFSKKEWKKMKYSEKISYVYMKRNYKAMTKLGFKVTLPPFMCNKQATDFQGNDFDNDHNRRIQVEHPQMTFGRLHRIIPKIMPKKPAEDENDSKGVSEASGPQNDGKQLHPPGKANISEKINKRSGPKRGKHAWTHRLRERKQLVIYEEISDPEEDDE
UniProt O76061, whole entry, looked up: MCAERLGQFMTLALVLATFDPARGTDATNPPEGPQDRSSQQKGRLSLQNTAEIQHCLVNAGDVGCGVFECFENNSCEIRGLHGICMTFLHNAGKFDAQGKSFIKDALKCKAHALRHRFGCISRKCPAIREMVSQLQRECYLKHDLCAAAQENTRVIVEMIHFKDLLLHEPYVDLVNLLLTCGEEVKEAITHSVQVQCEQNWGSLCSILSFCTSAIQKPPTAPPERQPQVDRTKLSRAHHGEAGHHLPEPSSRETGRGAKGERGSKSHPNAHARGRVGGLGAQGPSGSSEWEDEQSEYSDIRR
UniProt Q9Y6N5: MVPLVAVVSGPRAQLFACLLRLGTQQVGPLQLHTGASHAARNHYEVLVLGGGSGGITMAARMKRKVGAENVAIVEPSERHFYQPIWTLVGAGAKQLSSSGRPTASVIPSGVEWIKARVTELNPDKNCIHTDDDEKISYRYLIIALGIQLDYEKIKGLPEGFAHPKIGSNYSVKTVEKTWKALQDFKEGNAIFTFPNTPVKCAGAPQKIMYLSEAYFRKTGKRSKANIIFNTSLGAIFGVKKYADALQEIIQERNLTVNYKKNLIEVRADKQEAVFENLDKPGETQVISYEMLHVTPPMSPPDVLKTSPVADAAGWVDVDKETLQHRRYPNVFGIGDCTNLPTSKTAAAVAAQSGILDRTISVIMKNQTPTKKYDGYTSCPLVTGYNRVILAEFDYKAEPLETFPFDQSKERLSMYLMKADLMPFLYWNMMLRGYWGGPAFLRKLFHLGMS
UniProt Q9Y2D8: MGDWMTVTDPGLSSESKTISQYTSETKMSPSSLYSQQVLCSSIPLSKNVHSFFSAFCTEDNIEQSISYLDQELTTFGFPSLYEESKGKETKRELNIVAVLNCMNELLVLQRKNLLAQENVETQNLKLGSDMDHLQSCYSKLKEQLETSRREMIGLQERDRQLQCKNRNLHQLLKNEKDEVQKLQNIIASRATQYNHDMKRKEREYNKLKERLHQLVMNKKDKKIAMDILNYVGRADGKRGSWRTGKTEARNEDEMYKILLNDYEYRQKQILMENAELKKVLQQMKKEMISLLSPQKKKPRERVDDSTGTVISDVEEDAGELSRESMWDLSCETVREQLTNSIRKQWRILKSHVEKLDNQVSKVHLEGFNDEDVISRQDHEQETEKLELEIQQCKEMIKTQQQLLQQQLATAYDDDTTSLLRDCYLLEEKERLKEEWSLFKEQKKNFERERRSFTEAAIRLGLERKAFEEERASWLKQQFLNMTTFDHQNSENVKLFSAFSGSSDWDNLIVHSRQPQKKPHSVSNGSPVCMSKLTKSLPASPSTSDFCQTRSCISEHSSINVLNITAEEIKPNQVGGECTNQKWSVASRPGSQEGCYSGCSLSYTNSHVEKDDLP
UniProt Q7Z699: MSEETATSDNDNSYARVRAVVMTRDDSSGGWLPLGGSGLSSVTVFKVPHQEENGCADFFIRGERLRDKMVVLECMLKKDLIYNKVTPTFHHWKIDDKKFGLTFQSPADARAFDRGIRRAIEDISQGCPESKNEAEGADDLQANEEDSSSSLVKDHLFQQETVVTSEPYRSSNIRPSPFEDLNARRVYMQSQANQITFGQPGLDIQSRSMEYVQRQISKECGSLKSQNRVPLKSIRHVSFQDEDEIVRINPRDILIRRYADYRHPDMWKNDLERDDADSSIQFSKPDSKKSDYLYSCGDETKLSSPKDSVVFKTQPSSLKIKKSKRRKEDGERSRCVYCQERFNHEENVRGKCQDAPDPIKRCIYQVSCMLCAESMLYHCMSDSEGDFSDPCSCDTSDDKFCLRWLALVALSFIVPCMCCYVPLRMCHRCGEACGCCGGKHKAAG
UniProt O60225: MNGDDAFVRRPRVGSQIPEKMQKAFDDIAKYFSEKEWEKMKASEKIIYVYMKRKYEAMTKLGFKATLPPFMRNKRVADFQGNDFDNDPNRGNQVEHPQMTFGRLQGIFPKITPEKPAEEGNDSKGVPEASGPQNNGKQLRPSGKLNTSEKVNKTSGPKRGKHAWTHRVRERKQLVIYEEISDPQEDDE

Some of the results follow.

What all share (assay): log2 fold change, soluble protein after heating vs DMSO (PISA); higher = thermal stabilisation; K562 lysate, 10 uM; active = over 0.2 and 3.5 SD of the protein, either way, in both replicates (recomputed)
Compound in assay [1]: C1=CC=C(C=C1)[C@H](COC2=CC3=C(C=C2)NC(=O)N3)NC(=O)C4=CC=CN(C4=O)CC5=CC(=C(C=C5)F)F
Put shortly: (§1)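 Pellets of K562 cells were dounce-homogenised in PBS pH 7.4 with 1 mM MgCl2, and the crude extract was held at 1 mg/mL protein for a 30 min treatment with 10 μM compound. Aliquots were heated for 3 min over 48°C-58°C and pooled before NP-40 was added to 0.5% at 4°C. The supernatant from 21,000xg for 90 min was quantified by TMTpro 16plex LC-MS/MS with channel sums equalised. Values are reported from duplicates as log-two fold change in thermal stability relative to solvent controls.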

Compound in assay [2]: CC1=C(SC2=C1C(=N[C@H](C3=NN=C(N32)C)CC(=O)N)C4=CC=C(C=C4)Cl)C
Put shortly: as §1

Compound in assay [3]: c1ccc([C@@H]2C[C@H]2NC2CCNCC2)cc1
Put shortly:
as §1

Compound in assay [4]: Cc1sc2c(c1C)C(c1ccc(Cl)cc1)=N[C@@H](CC(=O)OC(C)(C)C)c1nnc(C)n1-2
Put shortly:
as §1

Compound in assay [5]: CC1=C2C(=CC=C1)N=C(N(C2=O)C3=CC=CC=C3C)CN4C=NC5=C(N=CN=C54)N
Summed up: as §1

As to SPRYD3 (UniProt Q8NCJ5), the figures for the log2 fold change in assay [1], in assay [2] and in assay [3] were inactive: 0.049, inactive: -0.073 and inactive: -0.04, respectively.

With STAU1 isoform 3 (UniProt O95793), the results for the log2 fold change in assay [1], in assay [2] and in assay [3] were inactive: 0.19, inactive: 0.043 and inactive: 0.081, respectively.

As for SPTY2D1 (UniProt Q68D10), the log2 fold change in assay [1] was inactive: 0.251; in assay [2] it was inactive: -0.304; in assay [4], inactive: -0.056; in assay [3], inactive: -0.104.

With SPATS2L isoform 2 (UniProt Q9NUQ6), the log2 fold change is inactive: 0.085 in assay [1], inactive: 0.059 in assay [2], inactive: 0 in assay [5] and inactive: 0.193 in assay [3].

On to SSH2 (UniProt Q76I76), for which the values for the log2 fold change in assay [5], in assay [4] and in assay [3] were inactive: 0.117, inactive: -0.113 and inactive: -0.263, respectively.

With SREK1IP1 (UniProt Q8N9Q2), the log2 fold change in assay [3] was inactive: 0.131.

Take STAG2 (UniProt Q8N3U4): the log2 fold change in assay [3] is inactive: 0.175.

With SPC24 (UniProt K7ESQ2), the log2 fold change in assay [3] is inactive: 0.021.

SPOUT1 (UniProt Q5T280): the figures for the log2 fold change in assay [5] and in assay [4] were inactive: -0.012 and inactive: -0.001, respectively.

SPTBN1 isoform 3 (UniProt Q01082): the log2 fold change in assay [4] is inactive: -0.068.

With STAR (UniProt P49675), the log2 fold change in assay [5] is inactive: 0.048; in assay [4] it was inactive: -0.077; in assay [3], inactive: -0.028.

Regarding STARD4 (UniProt Q96DR4), in assay [3], the log2 fold change is inactive: 0.056.

As for ST3GAL1 (UniProt Q11201), the log2 fold change in assay [4] was inactive: 0.143.

For the target STAM (UniProt A6NMU3), the log2 fold change in assay [5] was inactive: -0.21; in assay [4] it was inactive: 0.002.

For the target SPICE1 (UniProt Q8N0Z3), the log2 fold change in assay [5] is inactive: 0.21.

Regarding SPRTN (UniProt Q9H040), the figures for the log2 fold change in assay [5] and in assay [4] were inactive: 0.562 and inactive: 0.023, respectively.

For the target ST13P4 (UniProt Q8IZP2), the log2 fold change in assay [5] was inactive: 0.149.

Regarding SPATA7 (UniProt Q9P0W8), the log2 fold change in assay [1] is inactive: -0.001; in assay [2] it was inactive: -0.031; in assay [5], inactive: 0.13; in assay [3], inactive: -0.605.

For SSX1 (UniProt Q16384), the log2 fold change in assay [5] is inactive: 0.358; in assay [4], inactive: -0.144; in assay [3], inactive: -0.219.

Turning to STC2 (UniProt O76061), the log2 fold change in assay [5] was inactive: 0.091; in assay [4], inactive: 0.057; in assay [3] it was inactive: 0.039.

In the case of SRP14 (UniProt H0YLW0), the log2 fold change in assay [1] was inactive: -0.031; in assay [2], inactive: 0.048; in assay [4], inactive: -0.32; in assay [3], inactive: -0.303.

For SQOR (UniProt Q9Y6N5), the log2 fold change in assay [4] is inactive: -0.059.

For SPIN4 (UniProt Q56A73), the log2 fold change in assay [5] is inactive: 0.041; in assay [3], inactive: 0.102.

Take SSX2IP (UniProt Q9Y2D8): the log2 fold change was inactive: -0.159 in assay [5] and inactive: -0.024 in assay [3].

Regarding SPRED1 (UniProt Q7Z699), the log2 fold change is inactive: -0.077 in assay [1], inactive: -0.05 in assay [2], inactive: 0 in assay [4] and inactive: 0.088 in assay [3].

STAG1 (UniProt Q8WVM7): the log2 fold change in assay [1] was inactive: -0.152; in assay [2], inactive: 0.008; in assay [4], inactive: -0.018; in assay [3], inactive: 0.051.

Take SRRD (UniProt Q9UH36): the log2 fold change was inactive: 0.097 in assay [4] and inactive: -0.084 in assay [3].

Regarding SS18 (UniProt Q15532), the log2 fold change was inactive: -0.073 in assay [5], inactive: -0.045 in assay [4] and inactive: 0.11 in assay [3].

Consider SRC isoform 2 (UniProt P12931), for which the log2 fold change in assay [1] was inactive: -0.052; in assay [2], active: -0.412; in assay [4], inactive: -0.105; in assay [3], inactive: 0.017.

On to SPINT1 (UniProt O43278), for which the figures for the log2 fold change in assay [1], in assay [2] and in assay [3] were inactive: 0.027, inactive: 0.046 and inactive: 0.065, respectively.

Consider SRCIN1 (UniProt Q9C0H9), for which the log2 fold change in assay [3] is inactive: 0.058.

Take SREBF1 isoform 4 (UniProt P36956): the log2 fold change in assay [4] is inactive: 0.001.

Take SSX5 isoform 2 (UniProt O60225): the log2 fold change in assay [1] is inactive: 0.022; in assay [2], inactive: 0.03; in assay [5], inactive: -0.157; in assay [3], inactive: -0.253.

In the case of STAP1 (UniProt Q9ULZ2), the log2 fold change in assay [4] is inactive: -0.101.

Turning to STARD9 (UniProt Q9P2P6), the log2 fold change in assay [5] was inactive: 0.007; in assay [4], inactive: -0.166; in assay [3], inactive: 0.064.

For the target STARD8 isoform 2 (UniProt Q92502), the figures for the log2 fold change in assay [1], in assay [2] and in assay [4] were inactive: 0.05, inactive: 0 and inactive: 0.022, respectively.

Take SPP2 (UniProt Q13103): the figures for the log2 fold change in assay [1], in assay [2] and in assay [3] were inactive: 0.191, inactive: 0.05 and inactive: -0.042, respectively.

Take SS18L1 (UniProt O75177): the log2 fold change in assay [1] was inactive: 0.117; in assay [2] it was inactive: -0.087; in assay [3], inactive: -0.109.
